According to the supplement of paper PMC7666118:
The other results are listed elsewhere or left out.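 Rule for the calls: active = dose-dependent thermal stabilisation significant by F-test of dose-response against flat model at 10% FDR; inactive = not significant.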

Amino acid sequences for entries named in this document (tags omitted). A change or cut given only in a name is not applied to a line headed by its entry.
UniProt Q99583: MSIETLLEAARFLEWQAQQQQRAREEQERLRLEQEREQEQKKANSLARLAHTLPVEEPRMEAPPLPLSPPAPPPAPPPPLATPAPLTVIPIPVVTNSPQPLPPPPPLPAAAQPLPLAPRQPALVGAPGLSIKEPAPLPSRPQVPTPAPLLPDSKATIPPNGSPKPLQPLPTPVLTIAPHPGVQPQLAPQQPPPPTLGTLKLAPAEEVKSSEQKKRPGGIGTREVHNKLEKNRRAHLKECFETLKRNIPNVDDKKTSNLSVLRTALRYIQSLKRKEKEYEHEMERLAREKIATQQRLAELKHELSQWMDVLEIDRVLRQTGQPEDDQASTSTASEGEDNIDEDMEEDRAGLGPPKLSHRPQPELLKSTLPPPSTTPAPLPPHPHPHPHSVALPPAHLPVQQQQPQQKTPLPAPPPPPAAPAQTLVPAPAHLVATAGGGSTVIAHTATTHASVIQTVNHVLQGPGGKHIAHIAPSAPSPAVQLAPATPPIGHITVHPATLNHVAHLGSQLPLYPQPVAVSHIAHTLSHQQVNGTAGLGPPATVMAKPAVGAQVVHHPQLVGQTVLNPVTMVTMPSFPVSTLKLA
UniProt Q00987, whole entry, looked up: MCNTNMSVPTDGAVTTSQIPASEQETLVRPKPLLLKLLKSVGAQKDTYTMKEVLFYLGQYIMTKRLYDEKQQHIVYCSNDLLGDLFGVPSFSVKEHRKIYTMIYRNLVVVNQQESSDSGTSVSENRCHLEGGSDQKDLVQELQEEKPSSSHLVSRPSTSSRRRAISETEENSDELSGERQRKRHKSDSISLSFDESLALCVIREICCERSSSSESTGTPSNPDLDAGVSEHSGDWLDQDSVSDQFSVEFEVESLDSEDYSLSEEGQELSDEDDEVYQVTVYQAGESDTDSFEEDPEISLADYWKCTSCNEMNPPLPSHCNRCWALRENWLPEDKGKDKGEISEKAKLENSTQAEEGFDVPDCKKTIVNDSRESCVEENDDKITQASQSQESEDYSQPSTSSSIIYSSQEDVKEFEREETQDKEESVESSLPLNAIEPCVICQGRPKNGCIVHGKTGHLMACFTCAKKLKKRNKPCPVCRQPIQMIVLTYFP
UniProt P51948: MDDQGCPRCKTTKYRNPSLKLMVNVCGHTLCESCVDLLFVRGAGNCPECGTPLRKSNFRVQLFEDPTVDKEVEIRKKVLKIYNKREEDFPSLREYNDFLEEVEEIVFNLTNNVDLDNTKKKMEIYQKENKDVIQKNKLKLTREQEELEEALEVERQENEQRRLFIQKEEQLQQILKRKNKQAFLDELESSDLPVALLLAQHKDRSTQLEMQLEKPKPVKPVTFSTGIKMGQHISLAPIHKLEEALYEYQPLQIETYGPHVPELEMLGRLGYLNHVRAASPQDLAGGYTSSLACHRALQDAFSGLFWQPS
UniProt Q66K74: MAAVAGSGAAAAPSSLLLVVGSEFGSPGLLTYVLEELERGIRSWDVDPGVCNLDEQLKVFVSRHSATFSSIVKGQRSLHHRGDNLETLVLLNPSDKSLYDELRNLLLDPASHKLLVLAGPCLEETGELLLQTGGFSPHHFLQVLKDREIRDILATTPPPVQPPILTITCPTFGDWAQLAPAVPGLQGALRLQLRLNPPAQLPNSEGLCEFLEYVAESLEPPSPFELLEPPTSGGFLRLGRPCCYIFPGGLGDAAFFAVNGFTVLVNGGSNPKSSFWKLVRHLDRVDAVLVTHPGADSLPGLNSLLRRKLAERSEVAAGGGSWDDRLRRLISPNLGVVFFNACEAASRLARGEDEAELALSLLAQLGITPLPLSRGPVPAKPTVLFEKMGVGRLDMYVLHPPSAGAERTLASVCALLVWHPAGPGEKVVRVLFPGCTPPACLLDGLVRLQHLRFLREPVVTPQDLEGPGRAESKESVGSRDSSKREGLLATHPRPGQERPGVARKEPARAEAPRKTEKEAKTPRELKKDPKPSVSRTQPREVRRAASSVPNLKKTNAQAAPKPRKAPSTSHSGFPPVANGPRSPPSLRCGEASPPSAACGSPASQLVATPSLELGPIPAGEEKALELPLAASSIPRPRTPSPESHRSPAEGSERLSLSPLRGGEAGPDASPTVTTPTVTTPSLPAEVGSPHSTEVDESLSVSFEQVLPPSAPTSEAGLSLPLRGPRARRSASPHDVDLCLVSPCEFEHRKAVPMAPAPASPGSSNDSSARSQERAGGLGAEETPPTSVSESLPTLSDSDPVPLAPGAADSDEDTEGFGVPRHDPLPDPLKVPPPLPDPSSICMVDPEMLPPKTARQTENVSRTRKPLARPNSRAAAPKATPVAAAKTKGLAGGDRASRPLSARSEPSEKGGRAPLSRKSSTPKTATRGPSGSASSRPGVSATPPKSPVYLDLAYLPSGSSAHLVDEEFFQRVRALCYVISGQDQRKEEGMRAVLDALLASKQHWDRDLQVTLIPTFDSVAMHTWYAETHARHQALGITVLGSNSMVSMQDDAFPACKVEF
UniProt P40692: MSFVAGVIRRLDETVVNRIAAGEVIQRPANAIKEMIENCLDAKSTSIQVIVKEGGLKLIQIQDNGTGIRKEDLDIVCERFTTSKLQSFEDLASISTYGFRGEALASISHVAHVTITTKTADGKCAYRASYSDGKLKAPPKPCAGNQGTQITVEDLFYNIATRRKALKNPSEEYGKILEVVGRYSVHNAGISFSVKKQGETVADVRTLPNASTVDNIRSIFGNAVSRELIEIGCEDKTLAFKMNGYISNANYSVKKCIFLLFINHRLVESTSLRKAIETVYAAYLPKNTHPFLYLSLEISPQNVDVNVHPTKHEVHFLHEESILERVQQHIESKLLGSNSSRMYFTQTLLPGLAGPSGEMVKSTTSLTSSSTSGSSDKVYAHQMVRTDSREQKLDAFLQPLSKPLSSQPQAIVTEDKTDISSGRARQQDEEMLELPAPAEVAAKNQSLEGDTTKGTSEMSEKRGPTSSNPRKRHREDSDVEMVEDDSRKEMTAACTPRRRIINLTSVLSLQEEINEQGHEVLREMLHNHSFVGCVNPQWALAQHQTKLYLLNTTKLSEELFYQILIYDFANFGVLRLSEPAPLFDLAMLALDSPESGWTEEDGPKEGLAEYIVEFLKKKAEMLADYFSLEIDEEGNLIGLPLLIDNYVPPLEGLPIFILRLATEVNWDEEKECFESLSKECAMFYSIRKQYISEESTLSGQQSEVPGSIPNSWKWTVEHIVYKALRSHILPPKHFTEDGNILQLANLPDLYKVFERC
UniProt Q9BUK6: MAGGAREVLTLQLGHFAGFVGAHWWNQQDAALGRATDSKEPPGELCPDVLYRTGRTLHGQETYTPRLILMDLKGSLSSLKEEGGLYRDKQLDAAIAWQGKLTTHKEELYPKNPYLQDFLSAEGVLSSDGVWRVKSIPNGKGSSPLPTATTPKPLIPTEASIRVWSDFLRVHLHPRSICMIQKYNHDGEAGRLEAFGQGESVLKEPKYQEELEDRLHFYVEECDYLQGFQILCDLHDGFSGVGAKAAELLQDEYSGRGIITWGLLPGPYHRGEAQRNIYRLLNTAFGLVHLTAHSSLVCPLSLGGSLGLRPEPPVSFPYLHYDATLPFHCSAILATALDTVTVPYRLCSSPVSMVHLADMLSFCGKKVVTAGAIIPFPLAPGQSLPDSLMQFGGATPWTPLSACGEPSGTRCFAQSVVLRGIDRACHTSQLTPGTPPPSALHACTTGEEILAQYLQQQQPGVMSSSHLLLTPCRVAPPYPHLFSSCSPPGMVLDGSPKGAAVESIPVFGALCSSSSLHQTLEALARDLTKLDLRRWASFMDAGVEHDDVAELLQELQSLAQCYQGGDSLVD
UniProt Q8WZA0: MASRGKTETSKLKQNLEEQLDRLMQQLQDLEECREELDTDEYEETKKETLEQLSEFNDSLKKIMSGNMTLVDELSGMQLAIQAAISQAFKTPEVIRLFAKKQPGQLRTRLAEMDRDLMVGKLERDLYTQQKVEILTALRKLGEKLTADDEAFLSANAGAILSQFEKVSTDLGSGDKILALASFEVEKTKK
UniProt Q16539, whole entry: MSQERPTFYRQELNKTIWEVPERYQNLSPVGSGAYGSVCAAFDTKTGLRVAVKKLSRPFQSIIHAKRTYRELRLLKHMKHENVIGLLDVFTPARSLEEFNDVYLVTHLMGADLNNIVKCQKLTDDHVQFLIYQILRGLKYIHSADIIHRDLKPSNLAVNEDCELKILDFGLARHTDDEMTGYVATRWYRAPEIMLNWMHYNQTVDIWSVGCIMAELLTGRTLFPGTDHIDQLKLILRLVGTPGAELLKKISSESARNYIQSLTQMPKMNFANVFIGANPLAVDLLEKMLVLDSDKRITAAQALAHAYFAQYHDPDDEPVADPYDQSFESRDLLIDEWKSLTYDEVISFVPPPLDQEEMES
UniProt O14733: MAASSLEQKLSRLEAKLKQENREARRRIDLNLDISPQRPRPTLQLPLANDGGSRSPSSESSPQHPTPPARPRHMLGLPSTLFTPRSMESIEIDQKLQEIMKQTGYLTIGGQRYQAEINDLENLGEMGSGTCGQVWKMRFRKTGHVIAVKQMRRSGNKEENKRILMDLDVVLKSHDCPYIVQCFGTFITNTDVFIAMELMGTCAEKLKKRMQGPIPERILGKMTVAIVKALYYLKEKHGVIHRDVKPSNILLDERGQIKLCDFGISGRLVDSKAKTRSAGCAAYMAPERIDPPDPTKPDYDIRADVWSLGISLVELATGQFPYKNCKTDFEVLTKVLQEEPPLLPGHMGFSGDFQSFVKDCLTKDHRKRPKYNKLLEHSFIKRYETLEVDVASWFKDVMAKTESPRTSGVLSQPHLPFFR
UniProt Q5VWZ2: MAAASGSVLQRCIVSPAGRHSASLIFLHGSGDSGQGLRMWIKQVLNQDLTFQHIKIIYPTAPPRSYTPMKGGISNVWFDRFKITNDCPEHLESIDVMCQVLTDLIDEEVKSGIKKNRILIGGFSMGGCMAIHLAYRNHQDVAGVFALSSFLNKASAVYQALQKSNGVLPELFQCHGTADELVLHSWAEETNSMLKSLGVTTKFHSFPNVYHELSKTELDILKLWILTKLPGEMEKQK
UniProt Q13164: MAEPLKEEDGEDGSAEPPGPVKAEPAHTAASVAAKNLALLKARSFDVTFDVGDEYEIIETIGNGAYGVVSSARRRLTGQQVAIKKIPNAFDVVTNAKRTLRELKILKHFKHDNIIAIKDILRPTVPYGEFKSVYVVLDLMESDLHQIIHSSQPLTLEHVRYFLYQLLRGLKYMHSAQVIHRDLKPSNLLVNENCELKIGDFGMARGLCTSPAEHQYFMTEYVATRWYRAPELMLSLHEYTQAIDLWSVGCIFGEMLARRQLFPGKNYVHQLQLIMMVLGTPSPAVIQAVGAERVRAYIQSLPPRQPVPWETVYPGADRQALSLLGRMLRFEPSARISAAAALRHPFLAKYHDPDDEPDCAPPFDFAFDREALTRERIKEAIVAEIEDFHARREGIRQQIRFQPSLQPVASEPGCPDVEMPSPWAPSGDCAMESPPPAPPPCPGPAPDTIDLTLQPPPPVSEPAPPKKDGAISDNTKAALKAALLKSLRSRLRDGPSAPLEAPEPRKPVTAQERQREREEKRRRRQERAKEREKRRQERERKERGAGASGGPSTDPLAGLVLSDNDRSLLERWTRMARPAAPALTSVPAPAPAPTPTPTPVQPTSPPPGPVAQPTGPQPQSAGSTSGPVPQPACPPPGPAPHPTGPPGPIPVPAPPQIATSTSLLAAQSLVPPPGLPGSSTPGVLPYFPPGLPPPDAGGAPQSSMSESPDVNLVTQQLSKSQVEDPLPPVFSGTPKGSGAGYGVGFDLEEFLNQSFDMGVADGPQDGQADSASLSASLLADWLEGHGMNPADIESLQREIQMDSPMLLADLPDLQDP
UniProt Q9BTT4: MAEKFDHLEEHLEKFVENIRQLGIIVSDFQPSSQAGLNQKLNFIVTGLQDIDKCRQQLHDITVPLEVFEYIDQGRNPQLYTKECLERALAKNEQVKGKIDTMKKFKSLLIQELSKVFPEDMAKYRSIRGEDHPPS
UniProt Q9P2K5: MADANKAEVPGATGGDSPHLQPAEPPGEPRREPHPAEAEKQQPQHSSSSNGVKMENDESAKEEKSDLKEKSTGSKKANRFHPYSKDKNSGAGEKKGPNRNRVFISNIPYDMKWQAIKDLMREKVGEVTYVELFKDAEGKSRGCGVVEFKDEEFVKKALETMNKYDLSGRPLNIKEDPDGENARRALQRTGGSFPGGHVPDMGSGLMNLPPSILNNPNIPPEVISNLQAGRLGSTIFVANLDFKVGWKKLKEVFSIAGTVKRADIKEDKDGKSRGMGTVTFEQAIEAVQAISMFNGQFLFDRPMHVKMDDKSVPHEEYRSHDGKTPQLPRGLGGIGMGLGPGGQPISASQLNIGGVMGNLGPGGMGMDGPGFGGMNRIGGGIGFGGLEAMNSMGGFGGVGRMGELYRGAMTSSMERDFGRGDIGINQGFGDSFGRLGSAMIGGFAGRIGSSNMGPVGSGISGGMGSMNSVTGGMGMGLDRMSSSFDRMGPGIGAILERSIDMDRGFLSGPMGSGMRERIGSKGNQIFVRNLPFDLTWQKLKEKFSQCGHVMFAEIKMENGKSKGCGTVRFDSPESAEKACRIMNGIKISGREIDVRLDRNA

Compound: Nc1nc2c(ncn2[C@@H]2O[C@H](COP(=O)(O)OP(=O)(O)OP(=O)(O)O)[C@@H](O)[C@H]2O)c(=O)[nH]1
Experiment: dose-dependent thermal stabilisation call (2D-TPP, DLPTP, 10% FDR) (binary (1 = stabilised)); higher = stabilised by the compound
Details: system: Jurkat gel-filtered lysate; concentration range 1-500 µM
Protocol: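 2D thermal proteome profiling in gel-filtered Jurkat E6.1 lysate (2 mg/ml) treated with NaGTP (0, 1, 10, 100, 500 uM) for 10 min at room temperature, then heated 3 min at one of 12 temperatures (42-63.9 C). Soluble protein was quantified by TMT10 MS. The value is the DLPTP call of the paper: dose-dependent thermal stabilisation over all temperatures at 10% FDR (F-test of a dose-response against a flat model); one experiment, one call per tested protein.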

| Target | dose-dependent thermal stabilisation call |
| --- | --- |
| MRPL12 (UniProt P52815) | inactive: 0 |
| MBTD1 (UniProt Q05BQ5) | inactive: 0 |
| MAP2K1 (UniProt Q02750) | active: 1 |
| MSL1 (UniProt Q68DK7) | inactive: 0 |
| MNT (UniProt Q99583) | inactive: 0 |
| MDM2 (UniProt Q00987) | inactive: 0 |
| MRRF (UniProt Q96E11) | inactive: 0 |
| MECR (UniProt Q9BV79) | inactive: 0 |
| MAVS (UniProt Q7Z434) | inactive: 0 |
| MAD1L1 (UniProt Q9Y6D9) | inactive: 0 |
| MPLKIP (UniProt Q8TAP9) | inactive: 0 |
| MIOS (UniProt Q9NXC5) | inactive: 0 |
| MRPS23 (UniProt Q9Y3D9) | inactive: 0 |
| MNAT1 (UniProt P51948) | inactive: 0 |
| MAP1S (UniProt Q66K74) | active: 1 |
| MLH1 (UniProt P40692) | inactive: 0 |
| LRRC58 (UniProt Q96CX6) | inactive: 0 |
| LRCH3 (UniProt Q96II8) | inactive: 0 |
| MTHFD2 (UniProt P13995) | inactive: 0 |
| MAP3K20 (UniProt Q9NYL2) | inactive: 0 |

A second format for some results above:
Target	dose-dependent thermal stabilisation call
MAP2K1 (UniProt Q02750)	active: 1
MSL1 (UniProt Q68DK7)	inactive: 0

Following part

| Target | dose-dependent thermal stabilisation call |
| --- | --- |
| MSTO1 (UniProt Q9BUK6) | active: 1 |
| LZIC (UniProt Q8WZA0) | inactive: 0 |
| MAPK14 (UniProt Q16539) | active: 1 |
| MIEN1 (UniProt Q9BRT3) | inactive: 0 |
| MAP2K7 (UniProt O14733) | active: 1 |
| MESDC2 (UniProt Q14696) | inactive: 0 |
| LZTFL1 (UniProt Q9NQ48) | inactive: 0 |
| MAP3K7 (UniProt O43318) | inactive: 0 |
| LRRC57 (UniProt Q8N9N7) | inactive: 0 |
| MMAB (UniProt Q96EY8) | inactive: 0 |
| LYPLAL1 (UniProt Q5VWZ2) | inactive: 0 |
| MAPK7 (UniProt Q13164) | active: 1 |
| MED10 (UniProt Q9BTT4) | inactive: 0 |
| MPPED2 (UniProt Q15777) | inactive: 0 |
| MPP6 (UniProt Q9NZW5) | inactive: 0 |
| METTL14 (UniProt Q9HCE5) | inactive: 0 |
| MOB1A (UniProt Q9H8S9) | inactive: 0 |
| MYL6 (UniProt P60660) | inactive: 0 |
| MADD (UniProt Q8WXG6) | inactive: 0 |
| MYEF2 (UniProt Q9P2K5) | active: 1 |
